No constants are given. Whether binding was seen depends on the method and setting. Binding seen in cells or lysates may run through a third protein. Some results given as binding are weak or reduced against the parent protein; the word gives no strength.
Target: activating transcription factor 6 (ATF6), endogenous (human (endogenous in T24, 5637 and 253J)) (UniProt P18850)
Assay: co-IP; endogenous proteins; anti-ATF6 IP from 253J cells (TPD52 overexpression or empty vector) and T24 cells (shTPD52 or scramble), with 1 µg/mL tunicamycin where indicated; immunoblot

By UniProt entry, the sequences of proteins in these tests, tags left out.
UniProt P18850: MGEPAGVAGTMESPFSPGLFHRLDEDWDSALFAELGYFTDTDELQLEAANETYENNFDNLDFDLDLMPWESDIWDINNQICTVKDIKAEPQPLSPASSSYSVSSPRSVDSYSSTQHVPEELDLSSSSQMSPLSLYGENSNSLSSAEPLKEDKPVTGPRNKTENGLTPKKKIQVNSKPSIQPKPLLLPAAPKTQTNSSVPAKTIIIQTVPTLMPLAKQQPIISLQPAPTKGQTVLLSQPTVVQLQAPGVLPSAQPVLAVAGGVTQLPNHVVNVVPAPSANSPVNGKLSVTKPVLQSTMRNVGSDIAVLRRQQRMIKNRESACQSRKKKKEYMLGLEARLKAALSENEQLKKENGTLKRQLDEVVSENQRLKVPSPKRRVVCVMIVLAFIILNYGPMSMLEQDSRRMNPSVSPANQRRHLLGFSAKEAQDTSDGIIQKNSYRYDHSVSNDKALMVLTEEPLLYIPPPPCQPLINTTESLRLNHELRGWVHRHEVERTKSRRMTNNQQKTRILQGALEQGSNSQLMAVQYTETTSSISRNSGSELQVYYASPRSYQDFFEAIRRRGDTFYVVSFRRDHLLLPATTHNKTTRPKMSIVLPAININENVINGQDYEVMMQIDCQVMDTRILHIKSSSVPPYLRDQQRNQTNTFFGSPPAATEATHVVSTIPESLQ

binding: binds
B1: site-2 protease (S2P), endogenous (enzyme, UniProt O43462 1-519)
chain: MIPVSLVVVVVGGWTVVYLTDLVLKSSVYFKHSYEDWLENNGLSISPFHIRWQTAVFNRAFYSWGRRKARMLYQWFNFGMVFGVIAMFSSFFLLGKTLMQTLAQMMADSPSSYSSSSSSSSSSSSSSSSSSSSSSSLHNEQVLQVVVPGINLPVNQLTYFFTAVLISGVVHEIGHGIAAIREQVRFNGFGIFLFIIYPGAFVDLFTTHLQLISPVQQLRIFCAGIWHNFVLALLGILALVLLPVILLPFYYTGVGVLITEVAEDSPAIGPRGLFVGDLVTHLQDCPVTNVQDWNECLDTIAYEPQIGYCISASTLQQLSFPVRAYKRLDGSTECCNNHSLTDVCFSYRNNFNKRLHTCLPARKAVEATQVCRTNKDCKKSSSSSFCIIPSLETHTRLIKVKHPPQIDMLYVGHPLHLHYTVSITSFIPRFNFLSIDLPVVVETFVKYLISLSGALAIVNAVPCFALDGQWILNSFLDATLTSVIGDNDVKDLIGFFILLGGSVLLAANVTLGLWMVTAR
